Values quoted from earlier work as cited in patent US5616570A, “Use of non-absorbable synthetic sulfated polysaccharides to decrease cholesterol absorbtion” (priority 1994, dated 1997).
The name of at least one read-out is uncertain.

Settings: Fernandez et al., 1989; cited from earlier work

For `CCCCCCCCCCC[C@@H](C[C@@H]1OC(=O)[C@H]1CCCCCC)OC(=O)[C@H](CC(C)C)NC=O` [tetrahydrolipstatin], the absorbed and metabolized is given as 30%.
